Reference: the supplement of paper PMC3334620
The full ranking holds about 33,000 sequences; the median of “E-score (-0.5 to 0.5)” is about -8e-05, and the highest 2% start at about 0.23. The list shows a part of the results.

The sequences below were run against T1, Nrg2 (UniProt P38082) (assay: PBM E-score (8-mer binding enrichment) (E-score (-0.5 to 0.5)); higher = stronger / more preferred TF binding). Settings: protein concentration: 100 nM; construct: GST-full length.
T1 sequence: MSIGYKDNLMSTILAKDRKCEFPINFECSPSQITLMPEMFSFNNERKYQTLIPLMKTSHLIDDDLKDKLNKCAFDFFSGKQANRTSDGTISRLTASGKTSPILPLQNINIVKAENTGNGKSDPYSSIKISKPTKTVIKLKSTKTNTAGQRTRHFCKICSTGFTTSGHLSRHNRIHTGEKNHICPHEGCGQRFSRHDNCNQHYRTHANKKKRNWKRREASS
Procedure: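 Universal 'all 10-mer' protein binding microarrays (Agilent AMADID 015681) probed with GST-tagged S. cerevisiae TFs (full-length or DBD) made by in vitro transcription/translation (PURExpress), about 100-200 nM. Bound TF was detected with fluorescent anti-GST. Each ungapped 8-mer (which stands for itself and its reverse complement) is scored by the PBM enrichment score (E-score), a modified Wilcoxon-Mann-Whitney statistic from -0.5 to +0.5, computed with the Universal PBM Analysis Suite. Scale: above 0.35 generally sequence-specific binding.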

Sequence	PBM E-score
CCTGCCAA	-0.0911
CTACTTGC	0.141
AGAGGACG	-0.0944
GGGTGGGA	0.0375
CTGGATCC	0.0805
AGAAGGCG	0.00579
GAACTCTC	0.0328
AATACGGT	-0.079
GATCCTTA	-0.08
ACACGCAT	-0.0457
CACCAAAC	0.121
ATGCGCTG	-0.0147
ATTACTTG	0.212
GAGGAACA	0.109
CCCCCCAA	-0.399
CCCGTGGA	0.0285
GCGCCTAC	0.0178
CTGTGACC	-0.0102
CCGCCGTA	-0.119
AACCAGGA	0.00294
CCTAGACC	-0.0346
CTACCATA	0.1
GTGACCAC	-0.083
TAGCAAAA	-0.114
CGTGTAAA	-0.101

Laid out differently: entries from further up.
Sequence | PBM E-score
GAACTCTC | 0.0328
CACCAAAC | 0.121
GCGCCTAC | 0.0178

Going on with the list.

Sequence	PBM E-score
AAAAGCTC	-0.0693
CGCCACGC	-0.113
CCTTGGTC	-0.0147
CTATAGAG	-0.162
AACTCTAT	0.0268
AAATTCGT	0.235
CTAGTCTA	-0.122
TCCCTGAA	0.25
AATCTTTA	-0.0709
ACTACTAA	-0.00741
CCCGGTAA	-0.174
ACCAGTTG	0.0529
CTACCCCA	0.117
ACCGCTCT	-0.0258
AGCAGCGG	-0.0933
CTGATCTA	0.00323
GTGCTGTA	-0.0149
CGCTTGTC	0.0621
GAGACCGC	-0.171
CATGAATC	0.115
CCAGCATC	-0.0646
AATCGTAA	0.081
TACCCGGA	-0.04
CCGAGTCA	-0.161
GATAAAAC	0.103

Sequence	PBM E-score
AGTCAGCC	-0.152
CCAATGGC	0.0147
CACCAAAA	0.103
AGGAGTGG	-0.245
CACTAGGC	-0.0913
ACCAGGGC	-0.0495
ATCGGTAG	-0.11
TAAGGGCA	0.122
CAATCATA	0.177
TCTGGTCA	-0.0626
ATTCAAGC	0.149
ACTACGGA	-0.108
AACACTGC	0.154
ATAAAGAA	0.137
ACTATTAG	0.0208
CATGTAAA	-0.163
ACTCCGAA	-0.141
AAAAGGTA	-0.0612
GGAAGACA	-0.154
AATACCAT	0.115
TAGTCATA	-0.0609
CAAATGAA	-0.0303
TCCCCCCA	-0.398
CCCGCAGA	0.199
ATGCGAGG	0.137

Sequence	PBM E-score
GCGGTTTA	0.0652
ATGCGATA	0.0273
AATCCTAG	0.0124
GCCTTGAA	-0.263
TCTACACA	-0.0612
AAAACCCC	0.0161
ATAGTTTG	0.124
AAGTTCCA	-0.106
CAAGGGCC	0.0335
AGCCACGC	-0.185
AAATTGCC	0.0773
TAAAGTTA	0.147
GAGGCTCC	-0.161
CCGCGACC	-0.0745
CCCGGTCG	-0.108
ATGGCTCC	-0.0998
AAACGTTC	0.073
GGACGACC	-0.00798
CAGCAACG	0.251
AGCTGAGA	-0.00603
AGCTAGAA	-0.0709
TCGCGGCA	-0.0381
CACGACTG	-0.164
CCTACGGC	-0.0487
ATGCGATC	-0.00432

Sequence	PBM E-score
AAACATAC	-0.0466
AGTCCTAC	-0.113
GATCATAA	0.186
GGAGGTCA	-0.1
AGGACCAT	-0.067
CATTAATC	0.00049
CGAGCTAC	0.124
AGGTTGCG	-0.0343
TACGGTCA	-0.0837
ACCGTTGC	0.103
AGTATGGG	0.0265
AAATAGGC	0.0434
ATGTCAAG	-0.0778
CTAATAGC	0.0195
CCCAAATA	0.0934
GAAGACCC	0.164
TAAATGGA	-0.0213
GTATAAAC	0.156
AAGTGCGC	0.0541
GAGGCGCA	-0.0533
GGAGCCTA	-0.0975
CATAAGAA	0.254
CCACGCAG	0.0276
GCGAACCA	0.0408
ATGAAAGG	0.0927

Three successive records out of the list so far, quoted:
Sequence	PBM E-score
CATTAATC	0.00049
CGAGCTAC	0.124
AGGTTGCG	-0.0343

Following part:

Sequence	PBM E-score
AAAGATGC	-0.0405
ATACCGAT	-0.165
TAAGAAGA	0.034
TACCTTGA	0.0991
AATTATAA	0.0953
CGACTCCC	-0.182
ACCATACT	0.0482
GGACACCC	-0.0523
ACGAAAGT	0.0299
AAATGAGT	0.0784
GCAAGCGC	0.0122
AACCAATC	0.125
TGGACCCA	0.0535
AAGCGAGC	0.152
CATGACAG	0.0637
ATACATAG	0.21
CTACGCGA	0.00636
ATAAAACC	0.143
AACTTCAA	0.0208
GTGAAATA	0.0732
ATAAGAGA	0.0359
CAGCTTAA	0.019
GAACCTGA	0.0838
ACACGACT	-0.00048
ACCTTCGA	0.0275

Sequence	PBM E-score
GGACAACA	0.174
CATCGCAA	-0.13
AGATACAT	0.192
TCACGGGA	0.118
TGCGCCCA	-0.0934
TGACAAAA	0.13
ACCCCTCA	0.0629
GGAAAGTA	0.212
AACTGTGA	0.192
CCCGTCAG	-0.139
GCTGTAAC	0.0848
AATCACCC	0.155
AGAGGGGC	-0.1
AAAGATAC	0.232
ACCGCCTC	-0.17
CTATTCAG	0.0349
ACAGATCT	0.0451
AAGGTCGC	-0.0587
ACGGGACA	0.0203
CAGATTTA	0.131
AAGGCAAC	0.0667
GCCCAAGA	-0.102

Pulled one by one from above (3):
Sequence	PBM E-score
TGACAAAA	0.13
GGACAACA	0.174
ACCGCCTC	-0.17
